Literature values in US7026330B2, “Methods for treatment of acute lymphocytic leukemia” (The Children's Hospital of Philadelphia, priority 2002, dated 2006).
For at least one compound, name, drawing or mass did not settle the structure.

System: steroid refractory severe acute GVHD
Settings: 21 patients, 14 day course; cited from earlier work

## CO[C@H]1C[C@@H]2CC[C@@H](C)[C@@](O)(O2)C(=O)C(=O)N2CCCC[C@H]2C(=O)O[C@H]([C@H](C)C[C@@H]2CC[C@@H](O)[C@H](OC)C2)CC(=O)[C@H](C)/C=C(\C)[C@@H](O)[C@@H](OC)C(=O)[C@H](C)C[C@H](C)/C=C/C=C/C=C/1C [rapamycin]
  patients enrolled with a response: 28%
